{"source": "PubChem BioAssay AID1259424 – University of Nebraska Medical Center | 2018", "screen": "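Find knockdowns that reproduce the expression shifts seen after KSR1 loss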 (primary screen)", "system": "human HCT116 colon cancer cells", "knock-down reagent": "siRNA pool against human genes, 50 nM", "measured": "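Six signature mRNAs by branched-DNA multiplex assay, scaled to two housekeeping genes and non-targeting median, log2; matched to mean KSR1 knockdown profile by Pearson correlation and euclidean distance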", "direction": "mean correlation with KSR1 profile: higher = expression change more like KSR1 knockdown", "note": "Here is a random part of about 14,000 deposited reagents. 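Higher correlation or smaller distance means closer resemblance to KSR1 loss; control wells, including KSR1 knockdowns, recur on many plates.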 Not all columns of the deposit are shown. Not given: the time to read-out."}
{"gene knocked down": "CDIPT", "PubChem SID": "SID363997140", "mean correlation with KSR1 profile": -0.237}
{"gene knocked down": "ABCF1", "PubChem SID": "SID363992387", "mean correlation with KSR1 profile": 0.0359}
{"gene knocked down": "SETD1B", "PubChem SID": "SID364005099", "mean correlation with KSR1 profile": -0.448}
{"gene knocked down": "SCN3B", "PubChem SID": "SID364001041", "mean correlation with KSR1 profile": 0.527}
{"gene knocked down": "PUS7L", "PubChem SID": "SID364003581", "mean correlation with KSR1 profile": 0.427}
{"gene knocked down": "KIF16B", "PubChem SID": "SID364002990", "mean correlation with KSR1 profile": 0.175}
{"gene knocked down": "CDIP1", "PubChem SID": "SID363998503", "mean correlation with KSR1 profile": 0.428}
{"gene knocked down": "TAF6", "PubChem SID": "SID363996534", "mean correlation with KSR1 profile": 0.177}

2 entries from above, sorted by “mean correlation with KSR1 profile”, low to high.
{"gene knocked down": "CDIPT", "PubChem SID": "SID363997140", "mean correlation with KSR1 profile": -0.237}
{"gene knocked down": "ABCF1", "PubChem SID": "SID363992387", "mean correlation with KSR1 profile": 0.0359}

The list goes on.
{"gene knocked down": "SAV1", "PubChem SID": "SID364002198", "mean correlation with KSR1 profile": -0.382}
{"gene knocked down": "SIRT1", "PubChem SID": "SID363998162", "mean correlation with KSR1 profile": 0.307}
{"gene knocked down": "ABCA6", "PubChem SID": "SID364004480", "mean correlation with KSR1 profile": -0.101}
{"gene knocked down": "RALB", "PubChem SID": "SID363994037", "mean correlation with KSR1 profile": 0.759}
